Test results from PMC6014982.
No constants are given. Whether binding was seen depends on the method and setting. In cells and extracts the contact can be indirect.

By UniProt entry, the sequences of proteins in these tests, tags left out. Residues count along the entry.
UniProt P18910, residues 29-1057: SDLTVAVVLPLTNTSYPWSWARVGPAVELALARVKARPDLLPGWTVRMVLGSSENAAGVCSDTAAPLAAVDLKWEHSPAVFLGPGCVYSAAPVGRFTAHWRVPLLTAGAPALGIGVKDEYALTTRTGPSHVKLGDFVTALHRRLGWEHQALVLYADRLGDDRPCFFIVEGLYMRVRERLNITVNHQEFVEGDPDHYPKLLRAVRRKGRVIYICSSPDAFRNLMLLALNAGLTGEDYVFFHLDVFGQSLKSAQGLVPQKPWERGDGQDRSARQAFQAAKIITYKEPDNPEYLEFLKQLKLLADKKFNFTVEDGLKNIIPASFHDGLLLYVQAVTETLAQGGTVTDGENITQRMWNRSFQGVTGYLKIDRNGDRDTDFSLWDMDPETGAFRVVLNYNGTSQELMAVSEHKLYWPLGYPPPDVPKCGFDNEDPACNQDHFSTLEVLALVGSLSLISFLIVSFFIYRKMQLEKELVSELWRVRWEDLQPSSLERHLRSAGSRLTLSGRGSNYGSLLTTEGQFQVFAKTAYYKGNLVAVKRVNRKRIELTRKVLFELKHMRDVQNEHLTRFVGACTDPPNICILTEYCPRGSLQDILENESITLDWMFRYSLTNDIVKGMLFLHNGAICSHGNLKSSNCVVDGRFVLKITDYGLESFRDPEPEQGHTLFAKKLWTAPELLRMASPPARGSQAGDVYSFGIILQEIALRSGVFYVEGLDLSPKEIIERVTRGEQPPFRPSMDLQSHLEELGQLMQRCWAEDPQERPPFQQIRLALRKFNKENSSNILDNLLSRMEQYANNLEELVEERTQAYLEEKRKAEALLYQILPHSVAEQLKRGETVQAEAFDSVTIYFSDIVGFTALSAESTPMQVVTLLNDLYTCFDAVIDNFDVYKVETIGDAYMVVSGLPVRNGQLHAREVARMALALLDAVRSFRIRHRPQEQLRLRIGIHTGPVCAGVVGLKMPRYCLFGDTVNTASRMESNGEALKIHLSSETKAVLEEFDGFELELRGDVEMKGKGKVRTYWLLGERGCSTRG

Target: FLAG-tagged NPR1 (natriuretic peptide receptor 1) (UniProt P18910)
Assay: co-IP; HEK293A cells transfected with mouse PDE2A3 and/or FLAG-NPR1; lysis in 20 mM Tris, 1% triton, 120 mM NaCl, 2 mM EDTA, 2 mM EGTA; lysate incubated with anti-FLAG or anti-PDE2A3 antibody at 4 °C overnight; Protein A/G agarose; immunoblotting

- binding: no binding
B1: mouse PDE2A3 (phosphodiesterase 2) (enzyme, UniProt Q922S4-1 1-939)
chain: MGQACGHSILCRSQQYPAARPAEPRGQQVFLKPDEPPPQPCADSLQDALLSLGAVIDIAGLRQAARDALSAVLPKVETVYTYLLDGESRLVCEDPPHELPQEGKIREAVISQKRLSCNGLGPSDLLGKPLARLVAPLAPDMQVLVIPLLDKETGSVAAVILVHCGQLSDSEEQSLQVVEKHALVALRRVQALQQRRPEAVQNTSVDASEDQKDEKGYTDHDRKILQLCGELFDLDATSLQLKVLQYLQQETQATHCCLLLVSEDNLQLSCKVIGDKVLGEEVSFPLTMGRLGQVVEDKQCIQLKDLTSDDVQQLQNMLGCELQAMLCVPVISRATDQVVALACAFNKLGGDFPTSSFTDEDEHVIQHCFHYTGTVLTSTLAFQKEQKLKCECQALLQVAKNLFTHLDDVSVLLQEIITEARNLSNAEICSVFLLDQNELVAKVFDGGVVDDESYEIRIPADQGIAGHVATTGQILNIPDAYAHPLFYRGVDDSTGFRTRNILCFPIKNENQEVIGVAELVNKINGPWFSKFDEDLATAFSIYCGISIAHSLLYKKVNEAQYRSHLANEMMMYHMKVSDDEYTKLLHDGIQPVAAIDSNFANFTYTPRSLPEDDTSMAILSMLQDMNFINNYKIDCPTLARFCLMVKKGYRDPPYHNWMHAFSVSHFCYLLYKNLELSNYLEDIEIFALFISCMCHDLDHRGTNNSFQVASKSVLAALYSSEGSVMERHHFAQAIAILNTHGCNIFDHFSRKDYQRMLDLMRDIILATDLAHHLRIFKDLQKMAEVGYDRNNRQHHRLLLCLLMTSCDLSDQTKGWKTTRKIAELIYKEFFSQGDLEKAMGNRPMEMMDREKAYIPELQISFMEHIAMPIYKLLQDLFPKAAELYERVASNREHWTKVSHKFTIRGLPSNNSLDFLDEEYEVPDLDGTRAPVNGCCSLEG
